{"source": "PubChem BioAssay AID743121, NCATS – 2013", "screen": "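Partners whose loss is lethal together with topoisomerase I blockade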 (primary screen)", "cell system": "MDA-MB-231 cells, a human breast cancer line", "reagents": "single siRNA against human genes, 20 nM siRNA (0.8 pmol per well)", "duration": "120 h (drug added 48 h after transfection, read 72 h later)", "conditions": "camptothecin 20 nM (about EC30) for 72 h; vehicle 0.1% DMSO in parallel plates", "read-out": "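Cell viability by ATP luminescence (CellTiter-Glo) as % of non-targeting siRNA wells, and the log2 ratio of viability without drug over viability with camptothecin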", "scale": "log2 vehicle/camptothecin viability: higher = stronger sensitisation to camptothecin", "active means": "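Each gene scored by redundant siRNA activity (RSA) over its individual siRNA ratios; a gene is called active at p < 0.001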", "note": "This is an unselected part of about 26,000 reagents. Of all reagents, 167 (0.63%) got an active call. 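Calls are per gene from RSA p-values that are not deposited; an individual active-marked siRNA can sensitise only weakly.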 Further read-outs or replicates are left out here. No sequences are given here."}
{"Target gene": "SP1", "PubChem SID": "SID164389366", "log2 vehicle/camptothecin viability": -0.261, "outcome": "inactive"}
{"Target gene": "SP1", "PubChem SID": "SID164389367", "log2 vehicle/camptothecin viability": -0.359, "outcome": "inactive"}
{"Target gene": "SP1", "PubChem SID": "SID164389368", "log2 vehicle/camptothecin viability": -0.358, "outcome": "inactive"}
{"Target gene": "SP1", "PubChem SID": "SID164389371", "log2 vehicle/camptothecin viability": -0.0223, "outcome": "inactive"}
{"Target gene": "RPS27AP5", "PubChem SID": "SID174315955", "log2 vehicle/camptothecin viability": -0.0471, "outcome": "inactive"}
{"Target gene": "RPS27AP5", "PubChem SID": "SID174315985", "log2 vehicle/camptothecin viability": -0.563, "outcome": "inactive"}
{"Target gene": "RPS27AP5", "PubChem SID": "SID174316039", "log2 vehicle/camptothecin viability": -0.357, "outcome": "inactive"}
{"Target gene": "LRRC57", "PubChem SID": "SID164605891", "log2 vehicle/camptothecin viability": -0.608, "outcome": "inactive"}
{"Target gene": "LRRC57", "PubChem SID": "SID164605892", "log2 vehicle/camptothecin viability": -0.0845, "outcome": "inactive"}
{"Target gene": "LRRC57", "PubChem SID": "SID164605893", "log2 vehicle/camptothecin viability": -0.798, "outcome": "inactive"}
{"Target gene": "ABCA3", "PubChem SID": "SID164351821", "log2 vehicle/camptothecin viability": 0.079, "outcome": "inactive"}
{"Target gene": "ABCA3", "PubChem SID": "SID164351822", "log2 vehicle/camptothecin viability": -0.0501, "outcome": "inactive"}
{"Target gene": "ABCA3", "PubChem SID": "SID164351824", "log2 vehicle/camptothecin viability": 0.178, "outcome": "inactive"}
{"Target gene": "ABCA3", "PubChem SID": "SID164351825", "log2 vehicle/camptothecin viability": -0.0386, "outcome": "inactive"}
{"Target gene": "CHRNA4", "PubChem SID": "SID164358427", "log2 vehicle/camptothecin viability": 0.151, "outcome": "inactive"}
{"Target gene": "CHRNA4", "PubChem SID": "SID164358429", "log2 vehicle/camptothecin viability": -0.173, "outcome": "inactive"}
{"Target gene": "CHRNA4", "PubChem SID": "SID164358430", "log2 vehicle/camptothecin viability": 1.19, "outcome": "inactive"}
{"Target gene": "CHRNA4", "PubChem SID": "SID164358431", "log2 vehicle/camptothecin viability": 0.509, "outcome": "inactive"}

5 neighbouring reagents already listed, quoted:
{"Target gene": "ABCA3", "PubChem SID": "SID164351824", "log2 vehicle/camptothecin viability": 0.178, "outcome": "inactive"}
{"Target gene": "ABCA3", "PubChem SID": "SID164351825", "log2 vehicle/camptothecin viability": -0.0386, "outcome": "inactive"}
{"Target gene": "CHRNA4", "PubChem SID": "SID164358427", "log2 vehicle/camptothecin viability": 0.151, "outcome": "inactive"}
{"Target gene": "CHRNA4", "PubChem SID": "SID164358429", "log2 vehicle/camptothecin viability": -0.173, "outcome": "inactive"}
{"Target gene": "CHRNA4", "PubChem SID": "SID164358430", "log2 vehicle/camptothecin viability": 1.19, "outcome": "inactive"}

Continued:
{"Target gene": "KCNIP1", "PubChem SID": "SID164469280", "log2 vehicle/camptothecin viability": 1.04, "outcome": "inactive"}
{"Target gene": "KCNIP1", "PubChem SID": "SID164469282", "log2 vehicle/camptothecin viability": -0.12, "outcome": "inactive"}
{"Target gene": "KCNIP1", "PubChem SID": "SID164469283", "log2 vehicle/camptothecin viability": -0.453, "outcome": "inactive"}
{"Target gene": "KCNIP1", "PubChem SID": "SID164469284", "log2 vehicle/camptothecin viability": 0.293, "outcome": "inactive"}
{"Target gene": "ISLR2", "PubChem SID": "SID164495298", "log2 vehicle/camptothecin viability": -0.375, "outcome": "inactive"}
{"Target gene": "ISLR2", "PubChem SID": "SID164495299", "log2 vehicle/camptothecin viability": -0.289, "outcome": "inactive"}
{"Target gene": "ISLR2", "PubChem SID": "SID164495300", "log2 vehicle/camptothecin viability": -0.0523, "outcome": "inactive"}
{"Target gene": "ISLR2", "PubChem SID": "SID164495301", "log2 vehicle/camptothecin viability": -0.509, "outcome": "inactive"}
{"Target gene": "PEX13", "PubChem SID": "SID164380229", "log2 vehicle/camptothecin viability": 0.755, "outcome": "inactive"}
{"Target gene": "PEX13", "PubChem SID": "SID164380231", "log2 vehicle/camptothecin viability": 0.21, "outcome": "inactive"}
{"Target gene": "IRS4", "PubChem SID": "SID164397822", "log2 vehicle/camptothecin viability": 0.023, "outcome": "inactive"}
{"Target gene": "IRS4", "PubChem SID": "SID164397823", "log2 vehicle/camptothecin viability": -0.427, "outcome": "inactive"}
{"Target gene": "IRS4", "PubChem SID": "SID164397827", "log2 vehicle/camptothecin viability": -0.0727, "outcome": "inactive"}
{"Target gene": "IRS4", "PubChem SID": "SID164397829", "log2 vehicle/camptothecin viability": -0.42, "outcome": "inactive"}
{"Target gene": "RNGTT", "PubChem SID": "SID164399512", "log2 vehicle/camptothecin viability": -0.296, "outcome": "inactive"}
{"Target gene": "RNGTT", "PubChem SID": "SID164399513", "log2 vehicle/camptothecin viability": -0.547, "outcome": "inactive"}
{"Target gene": "RNGTT", "PubChem SID": "SID164399516", "log2 vehicle/camptothecin viability": -0.146, "outcome": "inactive"}
{"Target gene": "RNGTT", "PubChem SID": "SID164399517", "log2 vehicle/camptothecin viability": -0.0629, "outcome": "inactive"}
